From PubChem BioAssay AID445 (National Center for Advancing Translational Sciences (NCATS), 2006) come the findings set out here.

The AC50 is the midpoint of the concentration-response curve, whichever way the signal moves.

The structures appear in SMILES notation. The list shows a part of the results. The main result of the screen is listed elsewhere. These columns were measured beside it and carry no call. Compounds called inactive in the main read-out are mostly missing here. The note in brackets gives the kind of curve behind each potency; many fits are weak.

This experiment is described as follows: IkB Signaling. Particulars: ABC-DLBCL IkBa-CBG/CBR dual luciferase ratio (green luciferase fused to IkBa over red control in OCI-Ly3 lymphoma cells), 4 h; measured here: control luc red channel unless noted. The method, boiled down: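 Curves were fitted separately to fusion (green), unfused (red) and ratio luminescence, then classed by r2, magnitude and activity. Cells: OCI-Ly3, 4 h compound plus doxycycline at 37C; 10 uM MG-132 defined full response.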
For `O=C(CCS(=O)(=O)c1cccs1)Nc1ccc(C(=O)Nc2ccccc2F)cc1`, the AC50 was 31.6 µM [falling, single point]. `CCSc1ncc(Cl)c(C(=O)Nc2ccc(S(=O)(=O)N3CCCCC3)cc2)n1`: the AC50 was 6.31 µM [falling, partial curve]. Under `Cc1ccc(C)c(Cn2cc(S(=O)(=O)c3ccc(Cl)cc3)c(=O)c3cc(F)ccc32)c1` stands 10 µM [falling, partial curve]; under `CCCCN(CCCC)CCNC(=O)c1cn(CC)c2ccc(S(=O)(=O)N(C)C3CCCCC3)cc2c1=O`, 12.6 µM [falling, partial curve]; under `Cc1ccc(-c2c(C)n3c4c(=O)n(C)c(=O)n(C)c4nc3n2CCO)cc1`, 3.16 µM [falling, partial curve]. In the case of `CC(=O)N1CCc2c(sc3c2c(=O)n(CCc2ccccc2)c(=O)n3Cc2ccc(Cl)cc2)C1`, the AC50 is 12.6 µM [falling, single point].

As to `CCOCCCNc1ncnc2c1cnn2-c1ccc(C)c(C)c1`, the AC50 is 12.6 µM [falling, partial curve].

On to `Cc1cc2c(cc1S(=O)(=O)N1CCCCC1)OCC(=O)N2`, for which the AC50 is 7.94 µM [rising, partial curve]. Under `CCOC(=O)Cc1csc(SCC(=O)Nc2sc3c(c2C(N)=O)CCC3)n1` stands 31.6 µM [falling, single point].

As to `CCOc1nc(NCCc2ccc(OC)c(OC)c2)nc(NC(C)(C)CO)n1`, the concentration at half-maximal activity (AC50) is 25.1 µM [falling, partial curve]. As to `CCOc1ccc(C(=O)NCC(c2ccco2)S(=O)(=O)c2cccs2)cc1` (stereo not drawn), the AC50 was 3.98 µM [falling, partial curve]. On to `O=C(CSc1nc(O)c(Cc2ccccc2)c(=O)[nH]1)Nc1ccccc1`, for which the AC50 was 10 µM [falling, partial curve].

As for `Cc1nn(-c2ccc(N3CCCC3)nn2)c(C)c1CCC(=O)N1CCN(c2ccccc2)CC1`, the AC50 is 39.8 µM [falling, single point]. As to `COc1ccc2c(C)c(CCC(=O)NCc3ccc(Cl)cc3)c(=O)oc2c1C`, the AC50 was 3.16 µM [rising, partial curve, poor fit]. Under `COC(=O)c1ccc(C(=O)OC)c(NC(=O)c2cnn3c(C(F)F)cc(-c4ccccc4)nc23)c1` stands 0.398 µM [rising, partial curve]; under `CCCN(c1ccc(C(C)C)cc1)S(=O)(=O)c1ccc2c(c1)oc(=O)n2CC(=O)OCC`, 7.94 µM [falling, full curve, poor fit]. For `COc1ccc(-c2nc(CNC(=O)Nc3ccccc3)c(C)o2)cc1`, the AC50 was 39.8 µM [falling, single point]. `CCCSc1nnc2[nH]c(=O)cc(C)n12`: the AC50 is 5.01 µM [rising, single point]. Regarding `O=C(Nc1nnc(S(=O)(=O)Nc2ccccc2)s1)C1CCCCC1`, the AC50 is 3.16 µM [rising, partial curve]. Under `COc1cccc(NC(=O)c2oc3ccccc3c2NC(=O)C2CC2)c1` stands 10 µM [falling, partial curve]. For `CCN(CCNC(=O)C1CCN(Cc2nc(-c3cccc(Cl)c3)oc2C)CC1)c1ccccc1`, the AC50 was 15.8 µM [falling, partial curve]. As to `Cc1cc(-n2c(C)cc(C(=O)CSc3ncnc4ccccc34)c2C)no1`, the AC50 was 3.16 µM [falling, full curve].

Take `CCOC(=O)c1ccc(N2C(=O)c3n[nH]c(C)c3C2c2ccc(OCC)cc2)cc1` (stereo not drawn): the concentration at half-maximal activity (AC50) was 39.8 µM [falling, single point].

For the molecule `O=C(CSc1ncccc1-c1nc2ccccc2[nH]1)N1CCCCC1`, the half-maximal activity concentration (AC50) was 0.631 µM [falling, full curve].

Take `C=CCOC(=O)c1sc(N2C(=O)c3oc4ccccc4c(=O)c3C2c2ccco2)nc1C` (stereo not drawn): the AC50 is 10 µM [falling, partial curve]. Under `COc1ccc(C(=O)Nc2nnc(C)s2)cc1` stands 12.6 µM [falling, partial curve]. Under `CC(C)Cn1c(=O)c2ccccc2n2c(CCC(=O)N3CCN(c4ccccc4)CC3)nnc12` stands 25.1 µM [falling, partial curve]. Under `CC(C)c1ccc(C2c3c(-c4ccccc4O)n[nH]c3C(=O)N2Cc2ccncc2)cc1` (stereo not drawn) stands 12.6 µM [falling, partial curve]; under `Cc1ccn2c(Nc3ccc4c(c3)OCCO4)c(-c3cccs3)nc2c1`, 39.8 µM [falling, single point]; under `CC(=O)c1c(C)[nH]c(C(=O)NCCc2ccccc2)c1C`, 15.8 µM [falling, single point].

In the case of `Cc1ccccc1-c1nnc(-c2ccccc2)o1`, the AC50 was 20 µM [falling, partial curve].

With `O=C(CSc1nnc(-c2ccc(Cl)cc2)o1)Nc1ccc(F)cc1`, the AC50 was 0.0501 µM [falling, full curve]. Regarding `CC(=O)N1CCc2c(sc3c2c(=O)n(CCc2ccccc2)c(=O)n3CC(=O)Nc2ccc(C)c(F)c2)C1`, the AC50 was 20 µM [falling, partial curve].

Consider `Cc1[nH]c2ccccc2c1C1(O)C(=O)N(Cc2ccccc2Cl)c2ccccc21` (stereo not drawn), for which the AC50 was 31.6 µM [falling, single point].

For the molecule `O=C1CN(C(=O)c2ccco2)C(c2ccc(F)cc2)c2cc(Cl)ccc2N1` (stereo not drawn), the AC50 was 12.6 µM [falling, partial curve]. In the case of `CCOc1ccc(OCC)c(NC(=O)CCc2nc3cccnc3n2-c2ccccc2)c1`, the AC50 was 20 µM [falling, single point]. Turning to `COC(=O)C(NC(=O)CCc1c(C)nc2c(c(C)nn2-c2ccccc2)c1C)C(C)C` (stereo not drawn), the AC50 was 15.8 µM [falling, partial curve].

With `Cc1ccccc1NC(=O)[C@H](CSCc1ccccc1)N1Cc2ccccc2C1=O`, the concentration at half-maximal activity (AC50) is 20 µM [falling, single point]. Under `CCN(CC)C(=O)C1CCN(c2nnc(C)c3c(C)n(-c4ccc(Cl)cc4)nc23)CC1` stands 39.8 µM [falling, single point]; under `COc1ccc(-c2cc(C(=O)N3CCN(Cc4ccccc4)CC3)no2)cc1OC`, 2.51 µM [falling, full curve]. As for `NC(=O)C1(N2CCCCC2)CCN(C(=O)Nc2ccc(F)cc2)CC1`, the AC50 was 39.8 µM [falling, single point]. For `Cc1ccc(C)c(N2CCN(C(=O)C3CCCN(Cc4nc(-c5cccc(Cl)c5)oc4C)C3)CC2)c1` (stereo not drawn), the AC50 was 25.1 µM [falling, partial curve]. Under `CCOc1cccc(NC(=O)CSc2ncc(-c3ccccc3)[nH]2)c1` stands 20 µM [falling, partial curve]. For `CCOc1cccc2sc(N3CCN(C(=O)C4CC4)CC3)nc12`, the concentration at half-maximal activity (AC50) was 3.16 µM [rising, single point]. In the case of `Cc1cccc(N2CCN(C(=O)c3ccc4c(c3)N(Cc3cccc(Cl)c3)C(=O)c3ccccc3S4=O)CC2C)c1` (stereo not drawn), the AC50 was 2.51 µM [rising, partial curve].

Turning to `Cc1cc(C)cc(NC(=O)CCCn2c3ccccc3c(=O)c3ccccc32)c1`, the AC50 is 12.6 µM [falling, partial curve]. Under `Cc1ccc(NC(=O)CCC(=O)N2Cc3ccccc3Oc3ncccc32)cc1F` stands 39.8 µM [falling, single point]; under `COc1ccc(-n2c(C)cc(C(=O)COC(=O)Cn3cnc4ccccc43)c2C)cc1`, 10 µM [falling, partial curve]; under `CCOc1ccc(NC(=O)c2ccc3c(c2)CCN3S(=O)(=O)c2ccc(Cl)cc2)cc1`, 10 µM [falling, partial curve].

As for `O=C(O)c1c(CNCc2cccc(F)c2)c2ccccc2n1Cc1ccccc1`, the concentration at half-maximal activity (AC50) was 12.6 µM [falling, partial curve].

With `O=C(NCC(c1ccc2c(c1)OCO2)N1CCOCC1)C(=O)Nc1cccc(Cl)c1` (stereo not drawn), the concentration at half-maximal activity (AC50) is 6.31 µM [falling, partial curve, poor fit]. Under `Fc1cccc(Cl)c1Cn1c(-c2cccs2)nc2ccccc21` stands 31.6 µM [falling, single point].

Turning to `CCOc1ccc(NC(=O)c2ccc(F)c(S(=O)(=O)N(CC)Cc3ccccc3)c2)cc1`, the AC50 was 25.1 µM [falling, partial curve].

As for `O=C(CCC1N=C2c3ccccc3N=C(SCc3cccc(F)c3)N2C1=O)NCc1cccs1` (stereo not drawn), the AC50 is 25.1 µM [falling, single point]. Under `Cc1ccc(Cl)cc1N1CCN(C(=O)CCNS(=O)(=O)c2ccc3c(c2)CCN3C(=O)C2CC2)CC1` stands 39.8 µM [falling, single point]. Under `Cc1ccc2c3c1C1(C(=O)N3C(C)(C)CC2C)C(C#N)=C(N)Oc2cc(O)ccc21` (stereo not drawn) stands 15.8 µM [falling, partial curve]; under `COc1ccc(OC)c(NC(=O)c2cc(S(=O)(=O)NCCc3ccc(Cl)cc3)ccc2F)c1`, 39.8 µM [falling, single point]. Under `CCOc1ccc(OCC)c(NC(=O)c2ccc(-c3ccccc3)s2)c1` stands 2.51 µM [falling, partial curve]. With `Cc1nc2nc(SCC(=O)NC3CCC(C)CC3)nn2c(C)c1Cc1ccccc1` (stereo not drawn), the AC50 is 39.8 µM [falling, single point]. As to `CC(=O)C(Sc1nn(C)c(=S)s1)C(=O)Nc1ccccc1` (stereo not drawn), the AC50 was 15.8 µM [falling, partial curve]. Under `CCOc1ccc(CCNC(=O)c2sc3ncccc3c2-n2cccc2)cc1OCC` stands 10 µM [falling, partial curve]. Under `Cc1ccc(N2CC(NC(=O)c3ccc(S(=O)(=O)N4CCCC4)cc3)CC2=O)cc1C` (stereo not drawn) stands 1 µM [rising, full curve]; under `O=C(Nc1ccccc1)[C@@]12C[C@@H]1/C(=N/O)c1ccccc1O2`, 39.8 µM [falling, single point].
